Experimental data reported in publication PMC3663554.
These are yes or no findings as the source states them, for the method shown. Binding seen in cells or lysates may run through a third protein. Binding calls can cover weak binding; strength is not graded here.

Target: T1, signal peptide peptidase (SPP) (human (endogenous in HEK293)) (UniProt Q8TCT9)
T1 sequence: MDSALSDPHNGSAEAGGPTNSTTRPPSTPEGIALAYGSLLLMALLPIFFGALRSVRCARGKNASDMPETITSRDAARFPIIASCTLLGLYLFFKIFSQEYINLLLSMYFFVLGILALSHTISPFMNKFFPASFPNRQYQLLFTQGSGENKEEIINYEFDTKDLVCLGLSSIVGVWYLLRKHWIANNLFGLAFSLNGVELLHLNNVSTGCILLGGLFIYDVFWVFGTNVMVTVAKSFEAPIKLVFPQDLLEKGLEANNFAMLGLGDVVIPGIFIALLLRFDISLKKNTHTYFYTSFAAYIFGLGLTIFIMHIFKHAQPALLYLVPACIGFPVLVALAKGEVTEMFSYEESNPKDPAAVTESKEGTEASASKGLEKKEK
Assay: co-IP; naive HEK293 cells, lysis in 1% CHAPSO, diluted to 0.5% CHAPSO; immunoprecipitation with rabbit polyclonal SPP antibody and Protein G-Sepharose, 4 °C; Western blot; control: nonspecific immunoglobulin

- binding: binds
Substance: endogenous presenilin 2, endoproteolytically processed N-terminal fragment (human (endogenous in HEK293)) (domain or fragment)
